Test results published in PubChem BioAssay AID1671190 (National Center for Advancing Translational Sciences (NCATS), 2021).
In all, about 580,000 compounds went through this assay and about 6,100 (1.1%) were called active. The shares of active, inactive and inconclusive entries below differ from those in the screen. The call rests on the fitted dose curve; in most records, active means well fitted inhibition curve with a large enough effect; inconclusive means small, poorly fitted or top-dose-only effect, or another doubt; inactive means no such curve, though single readings can be large or run the other way. A potency beside an inconclusive call is a rough fit, not a confirmed value.

Sequences of proteins named here, by UniProt entry; tags and fusion partners are left off. A change or cut given only in a name is not applied to a line headed by its entry.
UniProt P18054: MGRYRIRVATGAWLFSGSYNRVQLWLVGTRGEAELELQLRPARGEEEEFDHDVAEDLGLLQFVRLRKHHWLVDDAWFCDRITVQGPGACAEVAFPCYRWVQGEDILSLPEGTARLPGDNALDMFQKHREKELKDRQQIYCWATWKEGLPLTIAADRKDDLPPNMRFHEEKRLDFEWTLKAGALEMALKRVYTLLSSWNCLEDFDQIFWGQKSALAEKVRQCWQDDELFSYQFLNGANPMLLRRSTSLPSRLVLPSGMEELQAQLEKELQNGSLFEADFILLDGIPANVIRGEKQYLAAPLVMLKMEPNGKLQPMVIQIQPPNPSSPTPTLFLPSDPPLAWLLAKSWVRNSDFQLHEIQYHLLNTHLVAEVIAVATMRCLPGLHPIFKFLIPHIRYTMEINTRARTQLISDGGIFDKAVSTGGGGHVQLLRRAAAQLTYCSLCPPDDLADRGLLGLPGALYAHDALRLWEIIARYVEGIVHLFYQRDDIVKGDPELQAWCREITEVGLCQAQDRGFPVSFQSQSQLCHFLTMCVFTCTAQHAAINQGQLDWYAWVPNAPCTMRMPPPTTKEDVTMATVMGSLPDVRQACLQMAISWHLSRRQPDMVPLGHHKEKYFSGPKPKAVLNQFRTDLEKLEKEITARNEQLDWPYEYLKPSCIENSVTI

Target: Polyunsaturated fatty acid lipoxygenase ALOX12 (Homo sapiens) (UniProt P18054)
Assay: Primary qHTS assay for inhibitors of human arachidonate 12S-lipoxygenase (ALOX12): Round 2
Conditions: purified 12hLO, xylenol orange hydroperoxide absorbance; activity change, negative = inhibition: at 108 µM (top of the series) unless noted
Outline: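 Purified human 12hLO at 150 nM in 25 mM Hepes, 0.01% Triton X-100, pH 7.0, preincubated 15 min at room temperature with compound. Reaction started with 40 uM arachidonic acid, 30 min at room temperature. Hydroperoxide measured by Fe-xylenol orange, 573/405 nm absorbance ratio.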
On the % scale 0 is the no-effect control and ±100 the full control effect; potency means the concentration at half of the fitted maximal effect.

Q: For `Cc1cc(C)n(CCNC(=O)[C@H]2O[C@@H](n3ccc(N)nc3=O)[C@H](O)[C@@H]2O)n1`, which Potency is on record?
A: active: 50.1 µM

Q: For `O=C1CCCC(=O)C1=Cc1c[nH]c2ccccc12`, which Potency is on record?
A: inconclusive: 5.62 µM [inhibitor, partial curve, poor fit]

Q: For `COc1ccc(/C=C(\C#N)c2c[nH]c3ccccc23)cc1`, which Potency is on record?
A: inconclusive: 44.7 µM [inhibitor, partial curve]

Q: For `CSc1ncc(C(=O)NCc2ccc(Cl)cc2)c(C(F)(F)F)n1`, which Potency is on record?
A: inconclusive: 63.1 µM [inhibitor, partial curve, poor fit]

Q: `CCOC(=O)C1C(=O)C=C(c2ccc(C)cc2)CC1c1ccccc1` (stereo not drawn) was tested. Which Potency did it give?
A: inconclusive: 5.01 µM [inhibitor, full curve, poor fit]

Q: `CCn1c(CN2CCCCC2)nc2cc(NC(=O)c3ccccc3[N+](=O)[O-])ccc21` was tested. Which “activity change, negative = inhibition” value did it give?
A: inactive: -1.42%

Q: With `CONC(=O)C(NC(=O)c1ccccc1F)C(C)C` (stereo not drawn) as the compound, how does the Potency read?
A: inconclusive: 5.62 µM [inhibitor, full curve, poor fit]

Q: How did the “activity change, negative = inhibition” value turn out when `CCOCc1c(C(=O)OCC(=O)Nc2ccc(C)c(S(=O)(=O)N(C)C)c2)oc2ccccc12` was run?
A: inactive: -3.29%

Q: Which Potency does the source give for `Cc1cccc(NC(=S)NC2CCCCCC2)c1C` here?
A: active: 50.1 µM

Q: Which “activity change, negative = inhibition” value does the source give for `Cc1ccc(/C=N/NC(=O)CCn2nc(C)cc2C)c(C)c1` here?
A: inactive: -5.34%

Q: `O=C(O)COc1ccccc1/C=N/NC(=O)c1cc2ccccc2cc1O` was tested. Which Potency did it give?
A: inconclusive: 2.51 µM [inhibitor, full curve, poor fit]

Q: With `C=CCn1c(=NC(=O)c2ccc(S(=O)(=O)N3CCCc4ccccc43)cc2)sc2cc(S(N)(=O)=O)ccc21` as the compound, how does the “activity change, negative = inhibition” value read?
A: inactive: 10.6%

Q: `O=C(O)c1ccc(CNCc2cccc(Br)c2)cc1` was tested. Which Potency did it give?
A: inconclusive: 35.5 µM [inhibitor, partial curve, poor fit]

Q: Which Potency does the source give for `COc1ccc(C2=C(C)C(N3CCC(C(=O)Nc4cc(C)ccc4C)CC3)=NS2(=O)=O)cc1` here?
A: inconclusive: 50.1 µM [inhibitor, partial curve, poor fit]

Q: `CCCn1nc(C(=O)OCC(=O)Nc2ccc(Cl)cn2)c2ccccc2c1=O` was tested. Which “activity change, negative = inhibition” value did it give?
A: inactive: 6.41%

Q: For `C#CCOC(=O)C[N+](C)(C)CC=C`, which Potency is on record?
A: inconclusive: 112 µM [inhibitor, single point]

Q: `CCCCC(c1nnnn1Cc1ccco1)N1CCN(C(=O)c2ccco2)CC1` (stereo not drawn) was tested. Which Potency did it give?
A: inconclusive: 35.5 µM [inhibitor, partial curve, poor fit]

Q: With `S=C(Nc1ccccc1)Nc1nccs1` as the compound, how does the “activity change, negative = inhibition” value read?
A: inactive: -26.5%

Q: For `C=CCO[C@@H]1C[C@H]2C(=O)Nc3ccc(-c4ccc(F)cc4F)cc3C(=O)N2C1`, which Potency is on record?
A: inconclusive: 63.1 µM [inhibitor, full curve, poor fit]

Q: How did the Potency turn out when `C=C(C)CNC(=S)N/N=C1\CCCCc2ccccc21` was run?
A: active: 35.5 µM

Q: Which Potency does the source give for `N#Cc1ccc(NC(=O)C2CC(c3ccccc3)=NO2)cc1` (stereo not drawn) here?
A: inconclusive: 50.1 µM [inhibitor, partial curve, poor fit]

Q: How did the Potency turn out when `COc1cccc(Nc2nc3ccccc3nc2C(=O)OCC(C)C)c1` was run?
A: inconclusive: 7.94 µM [inhibitor, full curve]

Q: `COc1cc(C(=O)NCCCN2CCCC2=O)ccc1OCc1ccc(Cl)cc1Cl` was tested. Which Potency did it give?
A: inconclusive: 89.1 µM [inhibitor, single point]

Q: `O=C(NNc1cccc(Cl)c1)c1cccnc1Cl` was tested. Which Potency did it give?
A: inconclusive: 44.7 µM [inhibitor, partial curve, poor fit]

Q: For `CC(C)NC(=S)N/N=C1\CCCCC1C1CCCCC1` (stereo not drawn), which Potency is on record?
A: active: 22.4 µM

Q: How did the Potency turn out when `COc1ccc(SCC(O)Cn2c3ccccc3c3ccccc32)c(OC)c1` (stereo not drawn) was run?
A: inconclusive: 44.7 µM [inhibitor, partial curve, poor fit]

Q: `CN(C)CCCn1c(N)c(S(=O)(=O)c2ccccc2)c2nc3ccccc3nc21` was tested. Which Potency did it give?
A: inconclusive: 100 µM [inhibitor, single point]

Q: For `COc1ccc(-c2nc3cc(NC(=O)CC(C)C)ccc3o2)cc1`, which “activity change, negative = inhibition” value is on record?
A: inactive: 7.67%

Q: `C=CCOc1ccccc1CN1CCC(Cc2ccccc2)CC1` was tested. Which Potency did it give?
A: inconclusive: 0.282 µM [inhibitor, full curve, poor fit]

Q: With `Cc1ccc(CNC(=O)Cn2ncc3c([nH]c4ccc(C)cc43)c2=O)cc1` as the compound, how does the Potency read?
A: inconclusive: 141 µM [inhibitor, partial curve, poor fit]

Q: How did the “activity change, negative = inhibition” value turn out when `CC(=O)Nc1ccc(NC2=Nc3ccccc3N3C2=Nc2c(c(C)nn2-c2ccccc2)C3c2ccccc2)cc1` (stereo not drawn) was run?
A: inactive: 13.2%

Q: Which “activity change, negative = inhibition” value does the source give for `CN1CSC2=C(C#N)C(c3cccc(OCc4ccccc4)c3)CC(=O)N2C1` (stereo not drawn) here?
A: inactive: -12.4%

Q: `c1ccc(Cn2ncc3c(N4CCCCC4)ncnc32)cc1` was tested. Which Potency did it give?
A: inconclusive: 56.2 µM [inhibitor, single point]

Q: How did the “activity change, negative = inhibition” value turn out when `O=C(C[C@@H]1C/C=C\C[C@H](NC(=O)OCC2c3ccccc3-c3ccccc32)C(=O)OC[C@@H]2CCCN2C1=O)N[C@H](CO)Cc1ccccc1` was run?
A: inactive: -7.41%

Q: With `CC(C)(C)OC(=O)[C@H](Cc1ccccc1)NC(=O)c1nc[nH]c1C(=O)N[C@@H](Cc1ccccc1)C(=O)OC(C)(C)C` as the compound, how does the “activity change, negative = inhibition” value read?
A: inactive: 0.187%

Q: With `COc1ccc(CN(CC2CCC(C(=O)O)CC2)C(=S)Nc2ccc(C)c(Cl)c2)cc1` (stereo not drawn) as the compound, how does the Potency read?
A: inconclusive: 70.8 µM [inhibitor, partial curve, poor fit]

Q: How did the Potency turn out when `COc1ccc2ccc(OCC(=O)Nc3cc(C)on3)cc2c1` was run?
A: inconclusive: 112 µM [inhibitor, single point]

Q: For `N#Cc1ccc(COc2ccc(Br)cc2Br)cc1`, which Potency is on record?
A: inconclusive: 28.2 µM [inhibitor, partial curve]

Q: Which Potency does the source give for `CCN(CC(=O)Nc1ccc(OC)cc1)C(=O)Cc1cccs1` here?
A: inconclusive: 39.8 µM [inhibitor, partial curve, poor fit]

Q: How did the Potency turn out when `Cc1ccc2nc(NC(=O)C3CSC4(C)CCC(=O)N34)sc2c1` (stereo not drawn) was run?
A: inconclusive: 70.8 µM [inhibitor, partial curve, poor fit]

Q: For `CCCNC(=O)c1oc2ccc3c(c2c1C)C(O)CC(C)(C)O3` (stereo not drawn), which “activity change, negative = inhibition” value is on record?
A: inactive: 5.76%

Q: Which Potency does the source give for `COC(=O)C[C@H]1CC[C@H](NC(=O)c2cccc(F)c2)[C@@H](CO)O1` here?
A: inconclusive: 35.5 µM [inhibitor, partial curve, poor fit]

Q: `CC(=O)c1ccc(N2CCN(C(=O)c3ccc(OCc4c(C)noc4C)cc3)CC2)cc1` was tested. Which Potency did it give?
A: inconclusive: 100 µM [inhibitor, partial curve, poor fit]
